In the supplement of paper PMC12067093, “Discovery and optimisation of a covalent ligand for TRIM25 and its application to targeted protein ubiquitination” (Chemical Science, 2025):
This is one part of the list.

By UniProt entry, the sequences of proteins in these tests, tags left out. Where a name states a change or a piece, a line headed by the entry shows the natural chain unless it says otherwise.
UniProt P52429: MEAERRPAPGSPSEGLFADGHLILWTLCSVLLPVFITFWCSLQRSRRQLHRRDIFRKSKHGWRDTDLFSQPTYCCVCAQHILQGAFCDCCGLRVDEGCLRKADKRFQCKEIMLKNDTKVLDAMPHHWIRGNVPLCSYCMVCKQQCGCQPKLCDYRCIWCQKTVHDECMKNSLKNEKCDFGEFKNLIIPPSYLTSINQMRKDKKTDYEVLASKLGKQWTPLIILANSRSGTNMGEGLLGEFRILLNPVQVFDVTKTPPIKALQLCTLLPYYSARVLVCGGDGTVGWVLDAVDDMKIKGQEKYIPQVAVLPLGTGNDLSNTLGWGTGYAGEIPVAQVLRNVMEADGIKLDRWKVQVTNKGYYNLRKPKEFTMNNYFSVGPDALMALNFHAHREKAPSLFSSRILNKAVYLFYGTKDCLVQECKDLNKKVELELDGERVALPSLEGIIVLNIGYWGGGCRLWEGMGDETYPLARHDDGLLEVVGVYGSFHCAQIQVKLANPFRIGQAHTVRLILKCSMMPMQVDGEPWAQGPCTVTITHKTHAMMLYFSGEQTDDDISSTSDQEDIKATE
UniProt Q92499: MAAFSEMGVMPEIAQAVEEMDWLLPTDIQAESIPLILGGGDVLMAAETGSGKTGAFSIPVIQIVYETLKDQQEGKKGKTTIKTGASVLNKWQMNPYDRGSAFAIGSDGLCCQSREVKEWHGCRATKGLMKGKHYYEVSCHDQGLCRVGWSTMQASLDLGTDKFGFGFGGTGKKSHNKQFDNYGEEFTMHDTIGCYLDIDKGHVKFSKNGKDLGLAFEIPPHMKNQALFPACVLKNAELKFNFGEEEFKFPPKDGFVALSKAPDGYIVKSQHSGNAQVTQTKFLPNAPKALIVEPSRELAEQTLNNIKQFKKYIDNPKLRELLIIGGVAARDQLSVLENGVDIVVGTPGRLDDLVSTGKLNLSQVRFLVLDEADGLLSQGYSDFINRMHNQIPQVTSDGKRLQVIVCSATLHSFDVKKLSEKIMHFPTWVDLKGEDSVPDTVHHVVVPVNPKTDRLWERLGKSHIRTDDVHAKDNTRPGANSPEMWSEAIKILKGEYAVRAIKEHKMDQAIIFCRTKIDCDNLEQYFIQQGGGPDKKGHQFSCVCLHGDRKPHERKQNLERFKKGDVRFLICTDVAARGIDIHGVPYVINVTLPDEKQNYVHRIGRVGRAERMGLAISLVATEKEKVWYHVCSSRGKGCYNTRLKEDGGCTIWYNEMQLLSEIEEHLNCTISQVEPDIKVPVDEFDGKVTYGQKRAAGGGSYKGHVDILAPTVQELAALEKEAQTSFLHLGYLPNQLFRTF
UniProt Q9H4E7, whole entry, looked up: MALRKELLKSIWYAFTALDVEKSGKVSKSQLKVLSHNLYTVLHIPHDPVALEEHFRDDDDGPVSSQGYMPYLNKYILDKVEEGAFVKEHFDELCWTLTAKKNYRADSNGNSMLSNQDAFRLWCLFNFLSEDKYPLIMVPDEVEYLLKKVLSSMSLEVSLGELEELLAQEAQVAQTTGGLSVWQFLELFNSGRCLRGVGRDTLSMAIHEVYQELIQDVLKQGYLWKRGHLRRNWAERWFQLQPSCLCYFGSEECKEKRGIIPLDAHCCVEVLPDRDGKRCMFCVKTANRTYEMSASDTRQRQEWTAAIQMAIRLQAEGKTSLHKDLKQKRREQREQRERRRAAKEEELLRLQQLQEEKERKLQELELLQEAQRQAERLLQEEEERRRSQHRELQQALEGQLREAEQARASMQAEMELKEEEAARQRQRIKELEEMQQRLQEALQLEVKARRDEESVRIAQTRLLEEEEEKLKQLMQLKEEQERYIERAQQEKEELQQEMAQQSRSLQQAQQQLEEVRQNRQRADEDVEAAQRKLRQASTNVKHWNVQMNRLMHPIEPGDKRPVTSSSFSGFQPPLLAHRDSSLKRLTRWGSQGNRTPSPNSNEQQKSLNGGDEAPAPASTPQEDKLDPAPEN
UniProt O43583: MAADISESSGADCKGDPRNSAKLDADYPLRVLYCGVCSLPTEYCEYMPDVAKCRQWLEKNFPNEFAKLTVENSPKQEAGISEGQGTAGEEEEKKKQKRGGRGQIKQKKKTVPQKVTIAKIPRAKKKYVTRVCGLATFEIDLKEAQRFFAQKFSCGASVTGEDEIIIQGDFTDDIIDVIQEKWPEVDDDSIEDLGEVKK
UniProt O95786: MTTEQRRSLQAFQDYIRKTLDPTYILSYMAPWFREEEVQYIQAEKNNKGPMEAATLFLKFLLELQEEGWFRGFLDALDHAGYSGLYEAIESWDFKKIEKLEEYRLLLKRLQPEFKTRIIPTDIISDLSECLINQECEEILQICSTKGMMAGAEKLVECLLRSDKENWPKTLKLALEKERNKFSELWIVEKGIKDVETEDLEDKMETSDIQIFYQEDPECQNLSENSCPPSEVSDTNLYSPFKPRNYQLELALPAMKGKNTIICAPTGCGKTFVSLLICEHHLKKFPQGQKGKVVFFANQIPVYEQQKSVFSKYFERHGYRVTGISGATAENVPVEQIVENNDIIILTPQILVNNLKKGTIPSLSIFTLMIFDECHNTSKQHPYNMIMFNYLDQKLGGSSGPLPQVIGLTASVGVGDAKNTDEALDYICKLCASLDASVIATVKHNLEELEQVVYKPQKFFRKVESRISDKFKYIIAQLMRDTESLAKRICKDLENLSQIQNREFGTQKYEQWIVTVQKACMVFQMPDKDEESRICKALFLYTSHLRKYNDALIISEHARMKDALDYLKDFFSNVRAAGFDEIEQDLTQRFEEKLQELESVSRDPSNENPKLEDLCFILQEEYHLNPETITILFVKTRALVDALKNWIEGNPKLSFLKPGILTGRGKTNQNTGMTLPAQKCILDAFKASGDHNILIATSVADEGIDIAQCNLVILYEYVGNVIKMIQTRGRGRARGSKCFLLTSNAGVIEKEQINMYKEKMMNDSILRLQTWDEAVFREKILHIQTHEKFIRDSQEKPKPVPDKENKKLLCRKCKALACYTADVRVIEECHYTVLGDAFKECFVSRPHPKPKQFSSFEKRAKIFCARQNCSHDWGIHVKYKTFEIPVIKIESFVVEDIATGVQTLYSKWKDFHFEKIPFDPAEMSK
UniProt Q13574: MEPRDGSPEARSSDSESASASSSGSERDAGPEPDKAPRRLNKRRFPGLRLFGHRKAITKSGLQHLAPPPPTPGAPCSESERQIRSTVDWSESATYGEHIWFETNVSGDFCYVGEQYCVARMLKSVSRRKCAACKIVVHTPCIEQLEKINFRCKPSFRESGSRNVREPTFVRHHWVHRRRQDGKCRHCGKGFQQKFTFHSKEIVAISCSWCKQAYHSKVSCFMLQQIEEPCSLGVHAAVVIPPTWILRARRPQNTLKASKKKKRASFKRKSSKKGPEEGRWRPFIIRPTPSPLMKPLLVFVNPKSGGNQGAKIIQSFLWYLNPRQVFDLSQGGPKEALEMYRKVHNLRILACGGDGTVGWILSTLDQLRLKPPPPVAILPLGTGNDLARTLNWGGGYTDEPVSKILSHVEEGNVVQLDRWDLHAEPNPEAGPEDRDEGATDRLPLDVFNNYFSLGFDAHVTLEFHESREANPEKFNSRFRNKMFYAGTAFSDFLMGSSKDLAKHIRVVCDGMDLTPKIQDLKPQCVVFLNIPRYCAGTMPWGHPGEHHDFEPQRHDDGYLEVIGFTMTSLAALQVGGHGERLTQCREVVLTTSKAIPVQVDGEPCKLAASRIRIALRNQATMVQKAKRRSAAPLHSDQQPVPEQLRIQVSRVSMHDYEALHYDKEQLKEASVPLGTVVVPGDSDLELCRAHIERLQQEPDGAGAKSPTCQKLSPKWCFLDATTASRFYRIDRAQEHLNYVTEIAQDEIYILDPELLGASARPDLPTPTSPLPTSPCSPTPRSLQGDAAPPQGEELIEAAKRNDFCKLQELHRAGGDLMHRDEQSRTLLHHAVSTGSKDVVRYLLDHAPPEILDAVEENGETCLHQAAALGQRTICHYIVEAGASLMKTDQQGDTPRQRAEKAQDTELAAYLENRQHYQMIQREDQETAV
UniProt Q8N8A6: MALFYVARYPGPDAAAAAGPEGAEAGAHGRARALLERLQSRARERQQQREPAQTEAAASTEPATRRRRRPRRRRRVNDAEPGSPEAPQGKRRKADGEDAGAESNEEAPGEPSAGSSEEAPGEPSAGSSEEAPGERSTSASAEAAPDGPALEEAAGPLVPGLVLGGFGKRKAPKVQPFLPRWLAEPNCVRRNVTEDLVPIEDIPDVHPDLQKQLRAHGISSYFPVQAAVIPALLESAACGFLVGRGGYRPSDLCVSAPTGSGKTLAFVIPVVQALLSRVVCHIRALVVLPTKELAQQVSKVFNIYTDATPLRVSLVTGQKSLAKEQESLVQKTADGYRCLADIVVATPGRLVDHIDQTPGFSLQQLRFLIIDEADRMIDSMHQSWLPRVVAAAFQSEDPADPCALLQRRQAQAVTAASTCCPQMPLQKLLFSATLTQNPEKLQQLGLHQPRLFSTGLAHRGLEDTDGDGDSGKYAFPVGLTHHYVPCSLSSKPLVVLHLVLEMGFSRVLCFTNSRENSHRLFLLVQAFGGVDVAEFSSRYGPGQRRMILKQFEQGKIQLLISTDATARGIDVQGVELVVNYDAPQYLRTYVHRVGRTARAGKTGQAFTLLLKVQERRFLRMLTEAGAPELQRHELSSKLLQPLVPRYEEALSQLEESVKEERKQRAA
UniProt A2RUS2: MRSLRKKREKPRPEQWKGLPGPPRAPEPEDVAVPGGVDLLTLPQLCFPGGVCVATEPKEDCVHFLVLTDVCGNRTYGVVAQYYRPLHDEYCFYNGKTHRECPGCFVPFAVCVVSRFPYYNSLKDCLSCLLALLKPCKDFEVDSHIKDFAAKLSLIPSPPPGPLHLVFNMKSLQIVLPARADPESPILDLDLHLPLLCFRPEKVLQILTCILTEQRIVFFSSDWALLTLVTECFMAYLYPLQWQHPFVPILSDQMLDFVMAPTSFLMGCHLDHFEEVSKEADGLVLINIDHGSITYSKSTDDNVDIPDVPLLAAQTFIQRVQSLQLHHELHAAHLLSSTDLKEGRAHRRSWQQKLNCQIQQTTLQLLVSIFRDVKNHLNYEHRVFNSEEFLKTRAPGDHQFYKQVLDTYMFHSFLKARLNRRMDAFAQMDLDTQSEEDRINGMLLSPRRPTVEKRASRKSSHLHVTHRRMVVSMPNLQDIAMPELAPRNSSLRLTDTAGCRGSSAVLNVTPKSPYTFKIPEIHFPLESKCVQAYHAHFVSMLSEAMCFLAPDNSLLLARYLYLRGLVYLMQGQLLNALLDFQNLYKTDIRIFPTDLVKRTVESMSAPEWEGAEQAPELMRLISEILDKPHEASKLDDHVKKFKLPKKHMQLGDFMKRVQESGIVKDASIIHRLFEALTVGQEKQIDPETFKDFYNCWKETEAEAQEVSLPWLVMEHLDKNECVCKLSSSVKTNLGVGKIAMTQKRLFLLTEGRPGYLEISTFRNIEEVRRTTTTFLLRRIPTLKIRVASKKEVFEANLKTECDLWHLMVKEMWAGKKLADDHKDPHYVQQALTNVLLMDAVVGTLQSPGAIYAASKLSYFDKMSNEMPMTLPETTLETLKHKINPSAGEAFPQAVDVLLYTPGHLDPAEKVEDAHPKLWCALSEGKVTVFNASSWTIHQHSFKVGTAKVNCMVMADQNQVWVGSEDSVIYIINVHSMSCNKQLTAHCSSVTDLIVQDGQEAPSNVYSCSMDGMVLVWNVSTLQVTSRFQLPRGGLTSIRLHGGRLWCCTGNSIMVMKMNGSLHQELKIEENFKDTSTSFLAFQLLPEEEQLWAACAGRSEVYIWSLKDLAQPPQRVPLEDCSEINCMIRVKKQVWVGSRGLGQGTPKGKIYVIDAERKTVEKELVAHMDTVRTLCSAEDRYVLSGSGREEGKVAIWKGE
UniProt Q5T1V6: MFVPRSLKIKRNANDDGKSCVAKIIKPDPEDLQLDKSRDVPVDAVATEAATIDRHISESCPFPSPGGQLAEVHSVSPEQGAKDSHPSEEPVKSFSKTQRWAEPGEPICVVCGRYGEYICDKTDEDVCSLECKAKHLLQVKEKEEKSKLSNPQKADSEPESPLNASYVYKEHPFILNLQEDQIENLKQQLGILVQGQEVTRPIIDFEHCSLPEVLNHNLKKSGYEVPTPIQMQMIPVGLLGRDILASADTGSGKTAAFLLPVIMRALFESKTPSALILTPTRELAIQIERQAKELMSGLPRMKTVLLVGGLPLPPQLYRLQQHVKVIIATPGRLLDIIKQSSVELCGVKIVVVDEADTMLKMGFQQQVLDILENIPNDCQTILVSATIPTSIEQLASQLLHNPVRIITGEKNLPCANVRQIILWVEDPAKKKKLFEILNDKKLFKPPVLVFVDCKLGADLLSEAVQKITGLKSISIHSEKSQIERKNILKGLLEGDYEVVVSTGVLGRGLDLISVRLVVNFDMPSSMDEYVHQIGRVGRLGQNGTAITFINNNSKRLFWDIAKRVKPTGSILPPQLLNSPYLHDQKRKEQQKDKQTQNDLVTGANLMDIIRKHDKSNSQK

Compound: CC1Cc2ccccc2N1C(=O)C1CCCN(C1)C(=O)CCl (mixture of isomers) [TRIM25 ligand 11 (diastereomer mixture)]
Assay: probe-labelled cysteine peptide fold change vs DMSO (competition) (log2 fold change); higher = less target engagement (more negative = stronger competition)
Settings: THP-1, incubation time: 4 h
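Note: competitive chemoproteomic profiling in live THP-1 cells with an iodoacetamide desthiobiotin (IA-DTB) probe, comparing probe-labelled peptide intensities in compound-treated cells against DMSO-treated controls.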

Target	probe-labelled cysteine peptide fold change (10 µM)	probe-labelled cysteine peptide fold change (50 µM)
DGKE_P52429_167_TVHDECMK (UniProt P52429)	-0.069	-0.158
DDX1_Q92499_519_IDCDNLEQYFIQQGGGPDKK (UniProt Q92499)	0.0188	-0.0204
DEF6_Q9H4E7_267_GIIPLDAHCCVEVLPDR (UniProt Q9H4E7)	0.0266	0.124
DESI1_Q6ICB0_108_GEAYNLFEHNCNTFSNEVAQFLTGR (UniProt Q6ICB0)	0.192	-0.119
DDX24_Q9GZR7_620_VLDIMPLTLHACMHQK (UniProt Q9GZR7)	-0.0149	0.0466
DDX41_Q9UJV9_281_QTHGILEYYCR (UniProt Q9UJV9)	0.0671	0.166
DDX39A_O00148_74_AIVDCGFEHPSEVQHECIPQAILGMDVLCQAK (UniProt O00148)	-0.0326	0.112
DDHD2_O94830_207_GVENISVDIHCGEPLQIDHLVFVVHGIGPACDLR (UniProt O94830)	0.0139	-0.0101
DDX21_Q9NR30_539_TGVCICFYQHK (UniProt Q9NR30)	-0.0402	-0.0081
DDX3X_O00571_128_WCDKSDEDDWSK (UniProt O00571)	-0.422	-0.388
DDX50_Q9BQ39_633_GNMGVCFDVPTTESER (UniProt Q9BQ39)	0.183	-0.0499
DGKE_P52429_177_CDFGEFK (UniProt P52429)	-0.0497	0.0324
DDB2_Q92466_322_VYSASQWDCPLGLIPHPHR (UniProt Q92466)	0.0907	-0.0149
DENR_O43583_13_AADISESSGADCK (UniProt O43583)	-0.161	-0.362
DDX54_Q8TDD1_389_CSTLIVTDLAAR (UniProt Q8TDD1)	0.0254	0.159
DDX17_Q92841_166_GGDVCPKPVFAFHHANFPQYVMDVLMDQHFTEPTPIQCQGFPLALSGR (UniProt Q92841)	-0.298	-0.323
DELE1_Q14154_286_AQYNAGLCHEHGR (UniProt Q14154)	0.399	0.367
DDX58_O95786_428_NTDEALDYICK (UniProt O95786)	0.0328	0.169
DDX17_Q92841_319_CTYLVLDEADR (UniProt Q92841)	-0.0284	0.0638
DGKZ_Q13574_265_SGLQHLAPPPPTPGAPCSESER (UniProt Q13574)	0.058	-0.108
DDX39A_O00148_164_NCPHVVVGTPGR (UniProt O00148)	0.0425	0.0385
DDX1_Q92499_544_GHQFSCVCLHGDR (UniProt Q92499)	0.0969	0.153
DDX39A_O00148_197_HFVLDECDK (UniProt O00148)	-0.0844	0.0348
DEF6_Q9H4E7_267_RGIIPLDAHCCVEVLPDRDGK (UniProt Q9H4E7)	0.0111	0.222
DDX18_Q9NVP1_329_NLQCLVIDEADR (UniProt Q9NVP1)	0.112	0.178
DDX39A_O00148_299_CMALAQLLVEQNFPAIAIHR (UniProt O00148)	-0.153	0.0933
DDX51_Q8N8A6_338_CLADIVVATPGR (UniProt Q8N8A6)	0.196	-0.0799
DENND3_A2RUS2_801_TECDLWHLMVK (UniProt A2RUS2)	-0.0633	-0.108
DDX59_Q5T1V6_345_QSSVELCGVK (UniProt Q5T1V6)	-0.151	0.074
